Values from PubChem BioAssay AID504793 (Drosophila RNAi Screening Center, 2011).

Test: 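Knock-downs allowing continued mitosis even though DNA is damaged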 (primary screen)
Cell system: Drosophila S2R+ cells
Knock-down reagent: long dsRNA against Drosophila genes, about 0.25 µg dsRNA per well
Timing: 4 days of dsRNA, then 4 hours of drug before read-out
Conditions: doxorubicin 0.5 µM for 4 hours to cause double-strand breaks, in cells also given a low, harmless dose of dsRNA against nbs to sensitise the assay
Measurement: 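Mitotic index as the number of phospho-histone H3-positive cells in each well following doxorubicin, given as raw counts without normalisation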
Direction: mitotic cells: higher = more cells in mitosis, weaker G2 arrest
Call rule: 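a call needs confirmation in secondary tests, with other dsRNAs and a check of mitotic timing without damage, not just a high primary count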
Meaning of the calls: active = confirmed in follow-up tests; inactive = not confirmed
The deposit covers about 23,000 reagents; below is an unselected part of those with a known target gene and a result. In the full data, 62 (0.27%) are marked active. 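Calls come from follow-up tests whose scores are not deposited, so confirmed genes may have low counts here; counts are not normalised per plate.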 Raw values vary from plate to plate and are shown uncorrected. A number with no mark means an inactive call. A plus sign joins genes that one reagent is predicted to hit.

| target gene | amplicon | mitotic cells, replicate 1 | mitotic cells, replicate 2 |
| --- | --- | --- | --- |
| Noc1 (Nucleolar complex protein 1) | DRSC10921 | 3 | – |
| RpL41 (Ribosomal protein L41) | DRSC22958 | 11 | – |
| mrj | DRSC22592 | 8 | – |
| mrj | DRSC25295 | 4 | – |
| Orc6 (Origin recognition complex subunit 6) | DRSC07497 | 8 | – |
| Mst84Dd (Male-specific RNA 84Dd) | DRSC12600 | 5 | – |
| Mst84Dd (Male-specific RNA 84Dd) | DRSC25596 | 7 | – |
| CG14315 | DRSC14794 | 7 | – |
| CG9098 | DRSC03136 | 4 | 8 |
| CG9098 | DRSC22501 | 6 | – |
| CG9098 | DRSC28828 | 4 | – |
| ca (claret) | DRSC15305 | 4 | – |
| ca (claret) | DRSC15306 | 8 | – |
| ca (claret) | DRSC16314 | 11 | – |
| CG14573 | DRSC11734 | 5 | – |
| CG14573 | DRSC29094 | 10 | – |
| CG15643 | DRSC19679 | 12 | – |
| CG15643 | DRSC27051 | 6 | – |
| Pp1-Y2 (Protein phosphatase 1, Y-linked 2) | DRSC21608 | 9 | – |
| hale (hale-bopp) | DRSC10882 | 6 | – |
| hale (hale-bopp) | DRSC28772 | 5 | – |
| Invadolysin | DRSC15527 | 12 | – |
| Pex12 (Peroxin 12) | DRSC00622 | 5 | – |
| Pex12 (Peroxin 12) | DRSC27149 | 4 | – |
| YL-1 | DRSC02765 | 2 | – |
| YL-1 | DRSC23798 | 14 | – |
| PH4alphaNE1 (prolyl-4-hydroxylase-alpha NE1) | DRSC16546 | 3 | – |
| PH4alphaNE1 (prolyl-4-hydroxylase-alpha NE1) | DRSC26942 | 5 | – |
| lola (longitudinals lacking) | DRSC05220 | 13 | – |
| lola (longitudinals lacking) | DRSC05221 | 7 | – |
| lola (longitudinals lacking) | DRSC05222 | 10 | – |
| lola (longitudinals lacking) | DRSC05223 | 16 | – |
| lola (longitudinals lacking) | DRSC05224 | 6 | – |
| lola (longitudinals lacking) | DRSC06738 | 4 | – |
| lola (longitudinals lacking) | DRSC06740 | 3 | – |
| lola (longitudinals lacking) | DRSC06741 | 13 | – |
| lola (longitudinals lacking) | DRSC07646 | 9 | – |
| lola (longitudinals lacking) | DRSC07647 | 10 | – |
| lola (longitudinals lacking) | DRSC27862 | 26 | – |
| CG43736 + CG33692 (retired record) | DRSC18370 | 15 | – |
| CG43736 + CG33692 (retired record) | DRSC18371 | 17 | – |
| CG43736 + CG33692 (retired record) | DRSC27351 | 3 | – |
| org-1 (optomotor-blind-related-gene-1) | DRSC22974 | 14 | – |
| org-1 (optomotor-blind-related-gene-1) | DRSC25771 | 7 | – |
| CG15927 | DRSC19742 | 12 | – |
| CG15927 | DRSC28678 | 3 | – |
